Results deposited as PubChem BioAssay AID1259425 (University of Nebraska Medical Center, 2018)

- Assay: 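Find knockdowns that reproduce the gene expression pattern seen when KSR1 is lost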 (primary screen)
- Cells: HCT116 human colon cancer cells
- Knock-down reagent: siRNA pool against human genes, 50 nM siRNA
- Detection: 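After 50 nM siRNA pool, branched-DNA assay measures six marker transcripts per well, minus blank, normalised to the geometric mean of two housekeeping transcripts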
- Reading the numbers: BNIP3L mRNA: higher = more BNIP3L transcript after knockdown
The deposit covers about 14,000 reagents; this is a part drawn at random. Further read-outs or replicates are left out here. Not stated in the record: the time to read-out.

no.	gene	BNIP3L mRNA, set 1
1	LRFN1 (GeneID 57622)	0.134
2	CYP3A4 (GeneID 1576)	0.0837
3	DENND10P1 (GeneID 55855)	0.0492
4	CEACAM4 (GeneID 1089)	0.09
5	RXRA (GeneID 6256)	0.125
6	ASRGL1 (GeneID 80150)	0.116
7	FLI1 (GeneID 2313)	0.16
8	PPDPF (GeneID 79144)	0.0824
9	CYP2D6 (GeneID 1565)	0.187
10	MEGF6 (GeneID 1953)	0.2
11	H1-6 (GeneID 3010)	0.273
12	HUS1 (GeneID 3364)	0.245
13	SNX6 (GeneID 58533)	0.0916
14	KCTD14 (GeneID 65987)	0.21
15	DLGAP2 (GeneID 9228)	0.093
16	GSDMB (GeneID 55876)	0.123
17	GATA6 (GeneID 2627)	0.12
18	AMBRA1 (GeneID 55626)	0.0718
19	FCRL5 (GeneID 83416)	0.0973
20	OLFML3 (GeneID 56944)	0.0596
21	SASH3 (GeneID 54440)	0.0437
22	HTRA1 (GeneID 5654)	0.117
23	PRSS21 (GeneID 10942)	0.145
24	MITF (GeneID 4286)	0.0965
25	ZNF528 (GeneID 84436)	0.111
26	MYO1D (GeneID 4642)	0.17
27	GCAT (GeneID 23464)	0.172
28	PLCB1 (GeneID 23236)	0.0864
29	PRLH (GeneID 51052)	0.159
30	SLC52A2 (GeneID 79581)	0.394

Targets above whose target name begins with P or p (4):
gene	BNIP3L mRNA, set 1
PPDPF (GeneID 79144)	0.0824
PRSS21 (GeneID 10942)	0.145
PLCB1 (GeneID 23236)	0.0864
PRLH (GeneID 51052)	0.159

Additional entries follow.
no.	gene	BNIP3L mRNA, set 1
31	VARS2 (GeneID 57176)	0.196
32	SLC9A3 (GeneID 6550)	0.295
33	ERG (GeneID 2078)	0.0374
34	REX1BD (GeneID 55049)	0.0654
35	MLLT6 (GeneID 4302)	0.169
36	ACO1 (GeneID 48)	0.131
37	NIFK (GeneID 84365)	0.187
38	SLC16A3 (GeneID 9123)	0.0824
39	CTSO (GeneID 1519)	0.187
40	AGFG2 (GeneID 3268)	0.476
41	CENPB (GeneID 1059)	0.144
42	TRIM58 (GeneID 25893)	0.0981
43	NOXA1 (GeneID 10811)	0.133
44	SETMAR (GeneID 6419)	0.0819
45	HSD3B7 (GeneID 80270)	0.29
46	GPX4 (GeneID 2879)	0.196
47	ARX (GeneID 170302)	0.0889
48	MS4A1 (GeneID 931)	0.106
49	HTR1F (GeneID 3355)	0.111
50	APOL3 (GeneID 80833)	0.0555
